No constants are given. Whether binding was seen depends on the method and setting. In cells and extracts the contact can be indirect. Some binding calls cover weakened binding; strength is not graded here.
Key:
[1] = biological target: Heat shock protein 70 (human (endogenous in HB2, MCF-7 and MCF-7R)) (UniProt P0DMV8); assay: co-IP; native plasma membrane fractions (180 μg) of HB2, MCF-7 and MCF-7R cells in PBS with 1% Triton X-100, 60 mM n-Octyl-D-glucoside, 2 mM EDTA; incubated overnight with anti-alpha-enolase (Eno 276/3) or anti-Hsp70 (cmHsp70.1) monoclonal cross-linked to agarose beads; immunoblotting
[2] = biological target: alpha-enolase (human (endogenous in HB2, MCF-7 and MCF-7R)) (UniProt P06733); assay: as above
[3] = biological target: alpha-enolase (human (endogenous in HB2, MCF-7 and MCF-7R)) (UniProt P06733); assay: co-IP; cytoplasmic extracts (500 μg) of HB2, MCF-7 and MCF-7R cells incubated overnight with anti-alpha-enolase monoclonal Eno 276/3 cross-linked to agarose beads; isotype IgG control; immunoblotting
[4] = biological target: alpha-enolase (human (endogenous in HB2, MCF-7 and MCF-7R)) (UniProt P06733); assay: proximity ligation; Duolink in situ PLA on live-stained HB2 cells in DMEM/5 mM NaN3; goat anti-alpha-enolase plus mouse anti-surface Hsp70, rabbit anti-uPAR or mouse anti-EGFR, all at 15 μg/ml; signal means within 40 nm

Sequences of proteins named here, by UniProt entry; tags and fusion partners are left off. Residues count along the entry.
UniProt P0DMV8: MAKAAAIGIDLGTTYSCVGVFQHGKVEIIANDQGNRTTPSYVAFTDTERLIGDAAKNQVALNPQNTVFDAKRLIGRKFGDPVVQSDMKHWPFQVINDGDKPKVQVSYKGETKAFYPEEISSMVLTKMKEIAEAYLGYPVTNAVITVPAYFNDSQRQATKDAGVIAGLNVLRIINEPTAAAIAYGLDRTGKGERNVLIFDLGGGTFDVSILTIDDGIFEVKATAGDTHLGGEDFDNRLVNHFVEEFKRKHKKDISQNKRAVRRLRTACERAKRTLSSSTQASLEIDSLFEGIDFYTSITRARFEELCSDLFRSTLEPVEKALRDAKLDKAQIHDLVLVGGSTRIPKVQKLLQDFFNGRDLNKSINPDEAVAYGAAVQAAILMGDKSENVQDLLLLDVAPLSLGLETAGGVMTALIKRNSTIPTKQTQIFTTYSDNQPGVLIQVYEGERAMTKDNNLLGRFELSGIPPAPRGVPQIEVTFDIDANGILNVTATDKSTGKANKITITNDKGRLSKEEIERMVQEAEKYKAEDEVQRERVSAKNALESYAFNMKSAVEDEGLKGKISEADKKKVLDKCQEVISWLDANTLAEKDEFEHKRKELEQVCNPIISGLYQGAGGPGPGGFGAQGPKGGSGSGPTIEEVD
UniProt P06733: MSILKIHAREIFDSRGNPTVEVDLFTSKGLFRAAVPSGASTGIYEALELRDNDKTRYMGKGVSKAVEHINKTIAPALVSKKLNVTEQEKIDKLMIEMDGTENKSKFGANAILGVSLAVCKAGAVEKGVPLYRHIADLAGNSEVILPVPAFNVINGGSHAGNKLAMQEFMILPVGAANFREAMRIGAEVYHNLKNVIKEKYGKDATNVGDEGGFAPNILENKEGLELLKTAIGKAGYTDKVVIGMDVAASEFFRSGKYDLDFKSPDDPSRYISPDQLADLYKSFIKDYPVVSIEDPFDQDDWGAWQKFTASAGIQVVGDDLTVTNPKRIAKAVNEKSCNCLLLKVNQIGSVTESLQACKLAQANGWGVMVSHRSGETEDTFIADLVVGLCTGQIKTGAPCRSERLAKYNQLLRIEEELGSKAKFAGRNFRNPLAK
UniProt Q03135: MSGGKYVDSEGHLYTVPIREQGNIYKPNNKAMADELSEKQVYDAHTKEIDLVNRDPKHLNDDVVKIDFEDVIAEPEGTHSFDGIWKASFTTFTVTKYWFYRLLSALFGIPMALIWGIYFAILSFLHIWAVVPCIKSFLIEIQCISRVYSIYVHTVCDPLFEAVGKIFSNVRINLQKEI
UniProt P04406: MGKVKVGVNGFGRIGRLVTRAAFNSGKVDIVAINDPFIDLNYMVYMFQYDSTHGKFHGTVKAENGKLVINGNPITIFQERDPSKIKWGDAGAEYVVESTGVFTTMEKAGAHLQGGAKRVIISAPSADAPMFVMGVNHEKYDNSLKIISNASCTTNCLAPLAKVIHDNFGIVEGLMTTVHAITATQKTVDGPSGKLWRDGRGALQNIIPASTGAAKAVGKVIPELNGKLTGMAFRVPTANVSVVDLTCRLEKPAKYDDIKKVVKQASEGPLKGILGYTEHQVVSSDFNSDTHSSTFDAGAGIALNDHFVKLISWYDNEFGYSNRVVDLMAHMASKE
UniProt Q03405, residues 23-305: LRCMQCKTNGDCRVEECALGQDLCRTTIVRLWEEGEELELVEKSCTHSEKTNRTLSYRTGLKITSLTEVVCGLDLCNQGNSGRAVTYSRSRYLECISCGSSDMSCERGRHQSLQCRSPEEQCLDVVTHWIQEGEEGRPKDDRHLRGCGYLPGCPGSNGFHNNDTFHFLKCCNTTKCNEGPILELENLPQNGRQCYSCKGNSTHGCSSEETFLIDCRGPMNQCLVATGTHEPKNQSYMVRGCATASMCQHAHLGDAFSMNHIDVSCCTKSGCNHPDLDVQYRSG
UniProt P07355: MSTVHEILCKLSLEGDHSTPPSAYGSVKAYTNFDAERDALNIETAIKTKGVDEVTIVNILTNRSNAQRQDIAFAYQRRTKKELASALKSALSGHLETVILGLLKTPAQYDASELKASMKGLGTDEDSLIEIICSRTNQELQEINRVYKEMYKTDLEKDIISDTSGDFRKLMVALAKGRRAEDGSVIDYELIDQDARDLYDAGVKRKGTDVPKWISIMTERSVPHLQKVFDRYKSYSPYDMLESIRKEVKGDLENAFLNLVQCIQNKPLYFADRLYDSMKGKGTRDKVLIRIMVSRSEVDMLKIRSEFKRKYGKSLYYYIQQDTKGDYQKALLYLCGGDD

Row | Substance | binding [1] | binding [2] | binding [3] | binding [4]
1 | caveolin 1 (from UniProt Q03135 1-178) | binds | binds | – | –
2 | Heat shock protein 70 (from UniProt P0DMV8 1-641) | – | binds | binds | binds
3 | GAPDH (from UniProt P04406 1-335) (enzyme) | no binding | no binding | – | –
4 | urokinase plasminogen activator receptor (from UniProt Q03405 23-305) | – | binds | – | binds

Next, values leading:

Row | binding [1] | binding [2] | binding [3] | binding [4] | Substance
5 | binds | – | – | – | alpha-enolase (from UniProt P06733 1-434) (enzyme)
6 | binds | binds | – | – | Annexin 2 (from UniProt P07355 1-339)

Reference: paper PMC5476664
